Values from PubChem BioAssay AID504744 (Drosophila RNAi Screening Center, 2011)

Purpose: 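Identify dsRNAs that increase or decrease phospho-dAkt after insulin treatment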 (primary screen)
System: Drosophila Kc167 cells
Knock-down reagent: long dsRNA against Drosophila genes, 250 ng dsRNA per well of a 384-well plate
Time to read-out: 3 days of knock-down, then overnight serum-free starvation before stimulation
Challenge: bovine insulin at 387 nM for 10 minutes after 12 h without serum
Read-out: 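In-cell antibody fluorescence for phospho-dAkt in each well over DNA-dye signal, with log2 residuals expressed as z-scores adjusted for cell count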
Hit rule: 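Under insulin, a gene counts as a hit if the average z-score of two replicates lies above 2.5 or below -2.5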
The deposit covers about 23,000 reagents; shown is a random part of those that have a named target and a result. Of all reagents, 98 (0.43%) got an active call. 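Only hit calls are given; the phospho-dAkt signals, z-scores and hit direction were not deposited.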 The numbers tell different reagents against one gene apart. A plus sign joins genes that one reagent is predicted to hit. No sequences are given here.

For His4:CG33883 + His4:CG33889 + His4:CG33899 + 20 more, how do the results read?
activity call: inactive

How did the screen score CG13894?
activity call: inactive

With CG10336, what was measured?
activity call: inactive

Which result is listed for fh?
activity call: inactive

With CG31076, what was measured?
activity call: inactive

What is on record for spidey?
activity call: inactive

With St4, what does the deposit list?
activity call: inactive

For thr, what does the deposit list?
activity call: inactive

For CG13869 + CG11099, what was measured?
activity call: inactive

What is on record for RhoGDI?
activity call: inactive

With CG15296, what does the deposit list?
activity call: inactive

What is on record for Pepck1?
activity call: inactive

For GATAd, how do the results read?
activity call: inactive

With CG12224, how do the results read?
activity call: inactive

What did the screen give for CG17712?
activity call: inactive

For CG42458, what does the deposit list?
activity call: inactive

For CG34310, what was measured?
activity call: inactive

With CG6144, what was measured?
activity call: inactive

What is on record for Elp5?
activity call: inactive

Which result is listed for ND-MWFE?
activity call: inactive

How did the screen score Rpn1?
activity call: inactive

What did the screen give for mwh?
activity call: inactive

For ORMDL, how do the results read?
activity call: inactive

Which result is listed for CG17217?
activity call: inactive

How did the screen score trpl #1?
activity call: inactive

How did the screen score trpl #2?
activity call: inactive

What is on record for CG30151?
activity call: inactive

For U2af38, what does the deposit list?
activity call: inactive

How did the screen score lap?
activity call: inactive

How did the screen score Ir31a?
activity call: inactive

Which result is listed for achi?
activity call: inactive

For Fbw5, how do the results read?
activity call: inactive

With CG15554, what was measured?
activity call: inactive

What is on record for Hpd?
activity call: inactive

For CG8012, what does the deposit list?
activity call: inactive

How did the screen score CAH9?
activity call: inactive

What did the screen give for CG34357 #1?
activity call: inactive

How did the screen score CG34357 #2?
activity call: inactive

What is on record for CG34357 #3?
activity call: inactive

What is on record for CG9095?
activity call: inactive

For CG9875, what does the deposit list?
activity call: inactive

Which result is listed for CG5026?
activity call: inactive

For Tina-1, what does the deposit list?
activity call: inactive

With CG12590, how do the results read?
activity call: inactive

With CG32706 + CG6999, what does the deposit list?
activity call: inactive

With Spt20, how do the results read?
activity call: inactive

How did the screen score bchs?
activity call: inactive

For mth, how do the results read?
activity call: inactive

Which result is listed for bug?
activity call: inactive

With Membrin, what was measured?
activity call: inactive

How did the screen score CG33648?
activity call: inactive

For CG15529, what does the deposit list?
activity call: inactive

With SA1, how do the results read?
activity call: inactive

How did the screen score CG15269?
activity call: inactive

With snoRNA:Me28S-A982b + Uhg4 + snoRNA:Me28S-G3255a + 1 more, how do the results read?
activity call: inactive

With ninaB, what does the deposit list?
activity call: inactive

How did the screen score CadN?
activity call: inactive
